Reference: PMC10449775
Results are given in words; binding and its absence hold for the method and conditions named. Binding seen in cells or lysates may run through a third protein. Some results given as binding are weak or reduced against the parent protein; the word gives no strength.

Chains of the proteins cited; added tags and fusions are not shown.
UniProt Q86WV6: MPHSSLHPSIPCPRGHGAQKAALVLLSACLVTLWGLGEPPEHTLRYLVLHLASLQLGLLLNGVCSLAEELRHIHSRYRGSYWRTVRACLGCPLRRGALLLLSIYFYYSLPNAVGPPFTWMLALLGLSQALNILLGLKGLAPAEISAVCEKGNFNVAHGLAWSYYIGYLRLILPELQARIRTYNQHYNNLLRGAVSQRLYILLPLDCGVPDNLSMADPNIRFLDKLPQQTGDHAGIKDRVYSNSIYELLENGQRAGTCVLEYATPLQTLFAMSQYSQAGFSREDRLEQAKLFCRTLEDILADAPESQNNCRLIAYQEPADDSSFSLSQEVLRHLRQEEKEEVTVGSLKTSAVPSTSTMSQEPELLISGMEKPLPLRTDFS

Target: Human epidermal growth factor receptor 2 (HER2) (human (endogenous in HCT116)) (UniProt P04626)
Assay: co-IP; endogenous proteins in HCT116; cells with or without RC48; RIPA whole cell lysate (1 mg) with antibody overnight at 4 °C, protein A/G beads 4 h, five washes in lysis buffer, Western blot

- binding: binds
Substance: STING (stimulator of interferon genes) (from UniProt Q86WV6 1-379)
